Experimental data taken from the supplement of paper PMC11006884.
What follows is the remainder of the data, with few or none of the targets with a hit. The data scatter; read single values as rough. The entries are a selection whose mix differs from that of the whole data set.

By UniProt entry, the sequences of proteins in these tests, tags left out. Where a name states a change or a piece, a line headed by the entry shows the natural chain unless it says otherwise.
UniProt Q9ULL5: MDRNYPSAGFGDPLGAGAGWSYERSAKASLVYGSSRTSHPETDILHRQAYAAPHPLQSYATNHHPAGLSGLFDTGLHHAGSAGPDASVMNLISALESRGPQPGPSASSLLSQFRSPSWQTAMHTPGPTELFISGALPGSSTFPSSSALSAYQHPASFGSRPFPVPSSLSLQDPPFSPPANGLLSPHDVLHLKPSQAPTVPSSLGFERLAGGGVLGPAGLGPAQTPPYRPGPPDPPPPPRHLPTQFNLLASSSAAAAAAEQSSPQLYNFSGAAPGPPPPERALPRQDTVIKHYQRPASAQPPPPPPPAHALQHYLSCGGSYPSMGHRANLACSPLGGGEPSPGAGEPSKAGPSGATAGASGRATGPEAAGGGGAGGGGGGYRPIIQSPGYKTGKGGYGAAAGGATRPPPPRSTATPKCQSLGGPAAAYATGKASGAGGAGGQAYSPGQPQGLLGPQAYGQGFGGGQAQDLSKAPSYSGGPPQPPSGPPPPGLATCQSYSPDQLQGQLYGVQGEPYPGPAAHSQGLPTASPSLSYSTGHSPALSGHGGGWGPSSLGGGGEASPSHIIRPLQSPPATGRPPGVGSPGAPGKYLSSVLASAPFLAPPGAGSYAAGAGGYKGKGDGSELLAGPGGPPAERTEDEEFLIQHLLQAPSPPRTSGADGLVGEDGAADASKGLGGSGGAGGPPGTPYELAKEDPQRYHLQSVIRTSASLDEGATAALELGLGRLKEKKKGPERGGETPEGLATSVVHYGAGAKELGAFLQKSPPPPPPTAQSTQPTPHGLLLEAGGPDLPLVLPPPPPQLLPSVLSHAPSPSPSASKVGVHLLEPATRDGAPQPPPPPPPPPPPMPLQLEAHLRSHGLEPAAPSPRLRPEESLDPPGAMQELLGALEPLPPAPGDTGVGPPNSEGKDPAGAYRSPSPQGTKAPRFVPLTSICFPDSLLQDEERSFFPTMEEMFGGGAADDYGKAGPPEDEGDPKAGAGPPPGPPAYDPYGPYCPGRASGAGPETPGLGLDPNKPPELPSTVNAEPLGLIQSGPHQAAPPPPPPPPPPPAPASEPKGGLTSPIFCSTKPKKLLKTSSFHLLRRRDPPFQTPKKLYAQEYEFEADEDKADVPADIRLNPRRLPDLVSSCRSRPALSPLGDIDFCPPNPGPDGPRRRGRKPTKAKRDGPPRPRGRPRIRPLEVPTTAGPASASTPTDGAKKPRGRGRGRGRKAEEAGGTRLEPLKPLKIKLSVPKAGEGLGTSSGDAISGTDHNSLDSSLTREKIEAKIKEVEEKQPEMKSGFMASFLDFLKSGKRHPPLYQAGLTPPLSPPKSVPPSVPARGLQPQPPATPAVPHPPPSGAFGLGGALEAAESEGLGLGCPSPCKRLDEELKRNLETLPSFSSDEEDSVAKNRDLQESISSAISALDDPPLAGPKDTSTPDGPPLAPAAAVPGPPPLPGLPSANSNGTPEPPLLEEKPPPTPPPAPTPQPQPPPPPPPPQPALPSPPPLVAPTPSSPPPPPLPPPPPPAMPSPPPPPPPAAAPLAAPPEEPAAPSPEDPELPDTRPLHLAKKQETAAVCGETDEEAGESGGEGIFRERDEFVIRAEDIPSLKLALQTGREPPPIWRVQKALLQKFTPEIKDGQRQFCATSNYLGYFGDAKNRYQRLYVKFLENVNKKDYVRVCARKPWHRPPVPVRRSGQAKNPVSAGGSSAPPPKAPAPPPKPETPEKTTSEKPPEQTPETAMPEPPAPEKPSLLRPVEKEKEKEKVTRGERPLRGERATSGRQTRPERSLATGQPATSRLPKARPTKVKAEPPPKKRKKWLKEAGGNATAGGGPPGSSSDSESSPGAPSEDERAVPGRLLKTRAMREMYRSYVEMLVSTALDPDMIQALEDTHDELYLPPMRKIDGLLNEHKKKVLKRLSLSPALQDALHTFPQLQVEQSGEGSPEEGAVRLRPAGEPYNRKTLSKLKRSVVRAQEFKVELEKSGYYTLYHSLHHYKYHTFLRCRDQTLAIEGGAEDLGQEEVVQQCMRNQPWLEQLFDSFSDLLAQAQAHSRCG
UniProt Q9UHD1: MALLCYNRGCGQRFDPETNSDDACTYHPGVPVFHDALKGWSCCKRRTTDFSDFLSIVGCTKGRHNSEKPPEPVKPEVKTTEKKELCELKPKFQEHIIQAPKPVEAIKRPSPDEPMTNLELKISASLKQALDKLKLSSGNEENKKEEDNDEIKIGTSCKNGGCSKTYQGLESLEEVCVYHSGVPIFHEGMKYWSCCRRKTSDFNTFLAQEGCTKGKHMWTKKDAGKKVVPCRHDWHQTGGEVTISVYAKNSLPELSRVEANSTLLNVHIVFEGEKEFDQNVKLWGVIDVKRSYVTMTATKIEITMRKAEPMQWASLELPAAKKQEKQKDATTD
UniProt Q9UKX7: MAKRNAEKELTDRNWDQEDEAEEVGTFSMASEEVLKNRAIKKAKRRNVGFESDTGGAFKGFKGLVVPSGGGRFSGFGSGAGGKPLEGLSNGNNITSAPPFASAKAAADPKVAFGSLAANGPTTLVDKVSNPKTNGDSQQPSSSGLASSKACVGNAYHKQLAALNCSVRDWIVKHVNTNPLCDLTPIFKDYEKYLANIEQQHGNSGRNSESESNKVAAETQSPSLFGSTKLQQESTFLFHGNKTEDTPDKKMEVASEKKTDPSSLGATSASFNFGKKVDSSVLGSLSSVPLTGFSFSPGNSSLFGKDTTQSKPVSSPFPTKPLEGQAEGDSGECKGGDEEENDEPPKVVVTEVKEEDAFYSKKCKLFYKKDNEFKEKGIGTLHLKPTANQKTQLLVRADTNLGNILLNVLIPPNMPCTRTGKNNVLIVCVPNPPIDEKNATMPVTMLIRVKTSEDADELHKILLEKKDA
UniProt Q9Y383: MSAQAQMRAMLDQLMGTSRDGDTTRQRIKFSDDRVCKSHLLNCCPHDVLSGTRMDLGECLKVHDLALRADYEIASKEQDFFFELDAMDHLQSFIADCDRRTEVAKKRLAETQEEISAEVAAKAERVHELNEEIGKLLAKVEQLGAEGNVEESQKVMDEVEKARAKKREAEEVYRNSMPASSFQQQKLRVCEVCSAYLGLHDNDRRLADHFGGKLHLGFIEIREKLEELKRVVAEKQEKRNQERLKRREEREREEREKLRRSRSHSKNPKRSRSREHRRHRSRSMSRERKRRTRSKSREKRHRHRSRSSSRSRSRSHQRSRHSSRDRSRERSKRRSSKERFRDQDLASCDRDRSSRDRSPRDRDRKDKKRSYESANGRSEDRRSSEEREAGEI
UniProt Q9UMY4: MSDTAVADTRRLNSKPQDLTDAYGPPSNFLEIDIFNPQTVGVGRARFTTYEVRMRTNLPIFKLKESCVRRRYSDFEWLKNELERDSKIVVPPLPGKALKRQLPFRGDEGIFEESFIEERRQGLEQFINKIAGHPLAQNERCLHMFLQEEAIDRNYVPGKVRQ
UniProt Q9UQ13: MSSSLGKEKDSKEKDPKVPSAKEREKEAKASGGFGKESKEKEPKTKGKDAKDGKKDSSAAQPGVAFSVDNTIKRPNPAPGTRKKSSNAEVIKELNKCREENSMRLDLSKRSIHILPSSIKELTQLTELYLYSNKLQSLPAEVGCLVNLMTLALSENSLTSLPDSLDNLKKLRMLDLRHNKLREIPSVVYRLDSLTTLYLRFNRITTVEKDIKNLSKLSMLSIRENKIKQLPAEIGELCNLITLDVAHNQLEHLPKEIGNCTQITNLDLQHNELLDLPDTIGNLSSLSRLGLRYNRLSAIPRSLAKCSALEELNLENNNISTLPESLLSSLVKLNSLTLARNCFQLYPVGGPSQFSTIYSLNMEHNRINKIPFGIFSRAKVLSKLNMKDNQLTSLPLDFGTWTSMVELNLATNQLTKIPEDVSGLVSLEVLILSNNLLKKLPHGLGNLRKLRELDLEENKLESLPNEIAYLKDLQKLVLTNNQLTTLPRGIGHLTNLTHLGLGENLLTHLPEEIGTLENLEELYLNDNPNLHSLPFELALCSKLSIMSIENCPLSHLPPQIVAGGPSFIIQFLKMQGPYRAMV
UniProt Q9Y3I0: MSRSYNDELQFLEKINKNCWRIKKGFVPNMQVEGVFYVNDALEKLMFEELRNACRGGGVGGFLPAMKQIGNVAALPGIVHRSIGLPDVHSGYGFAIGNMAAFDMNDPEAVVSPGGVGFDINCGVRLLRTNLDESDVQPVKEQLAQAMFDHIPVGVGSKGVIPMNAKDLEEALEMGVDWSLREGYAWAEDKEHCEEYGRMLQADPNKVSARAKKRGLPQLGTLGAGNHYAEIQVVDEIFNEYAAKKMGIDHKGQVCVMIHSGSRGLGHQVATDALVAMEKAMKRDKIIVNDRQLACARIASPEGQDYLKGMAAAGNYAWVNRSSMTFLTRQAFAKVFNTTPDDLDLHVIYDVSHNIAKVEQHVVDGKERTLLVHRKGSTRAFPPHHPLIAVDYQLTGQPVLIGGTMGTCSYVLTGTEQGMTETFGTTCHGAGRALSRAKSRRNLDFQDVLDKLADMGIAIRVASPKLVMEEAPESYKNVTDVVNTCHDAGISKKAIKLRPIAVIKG
UniProt Q9Y3V2: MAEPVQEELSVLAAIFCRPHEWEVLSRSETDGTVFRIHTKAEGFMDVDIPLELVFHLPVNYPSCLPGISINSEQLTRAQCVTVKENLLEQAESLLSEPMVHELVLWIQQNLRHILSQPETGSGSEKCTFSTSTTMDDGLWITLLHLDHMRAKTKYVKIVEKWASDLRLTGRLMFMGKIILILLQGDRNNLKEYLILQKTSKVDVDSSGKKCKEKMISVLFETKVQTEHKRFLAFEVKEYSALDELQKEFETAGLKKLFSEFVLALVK
UniProt Q9UIS9: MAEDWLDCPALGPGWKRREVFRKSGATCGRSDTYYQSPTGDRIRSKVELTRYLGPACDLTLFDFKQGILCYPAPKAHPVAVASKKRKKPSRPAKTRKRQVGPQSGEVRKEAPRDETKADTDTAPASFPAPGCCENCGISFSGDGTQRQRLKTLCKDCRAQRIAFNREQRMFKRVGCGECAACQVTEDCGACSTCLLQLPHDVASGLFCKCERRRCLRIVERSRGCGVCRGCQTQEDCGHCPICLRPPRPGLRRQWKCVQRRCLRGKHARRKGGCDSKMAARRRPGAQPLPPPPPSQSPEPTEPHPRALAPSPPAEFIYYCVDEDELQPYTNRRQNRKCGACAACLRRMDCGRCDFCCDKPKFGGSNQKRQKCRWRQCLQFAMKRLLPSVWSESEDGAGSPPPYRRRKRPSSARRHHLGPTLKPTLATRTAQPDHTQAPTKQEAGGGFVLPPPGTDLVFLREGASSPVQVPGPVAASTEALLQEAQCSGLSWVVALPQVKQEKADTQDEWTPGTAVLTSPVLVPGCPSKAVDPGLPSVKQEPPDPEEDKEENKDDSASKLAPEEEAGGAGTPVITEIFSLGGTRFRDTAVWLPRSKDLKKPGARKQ
UniProt Q9UHI6: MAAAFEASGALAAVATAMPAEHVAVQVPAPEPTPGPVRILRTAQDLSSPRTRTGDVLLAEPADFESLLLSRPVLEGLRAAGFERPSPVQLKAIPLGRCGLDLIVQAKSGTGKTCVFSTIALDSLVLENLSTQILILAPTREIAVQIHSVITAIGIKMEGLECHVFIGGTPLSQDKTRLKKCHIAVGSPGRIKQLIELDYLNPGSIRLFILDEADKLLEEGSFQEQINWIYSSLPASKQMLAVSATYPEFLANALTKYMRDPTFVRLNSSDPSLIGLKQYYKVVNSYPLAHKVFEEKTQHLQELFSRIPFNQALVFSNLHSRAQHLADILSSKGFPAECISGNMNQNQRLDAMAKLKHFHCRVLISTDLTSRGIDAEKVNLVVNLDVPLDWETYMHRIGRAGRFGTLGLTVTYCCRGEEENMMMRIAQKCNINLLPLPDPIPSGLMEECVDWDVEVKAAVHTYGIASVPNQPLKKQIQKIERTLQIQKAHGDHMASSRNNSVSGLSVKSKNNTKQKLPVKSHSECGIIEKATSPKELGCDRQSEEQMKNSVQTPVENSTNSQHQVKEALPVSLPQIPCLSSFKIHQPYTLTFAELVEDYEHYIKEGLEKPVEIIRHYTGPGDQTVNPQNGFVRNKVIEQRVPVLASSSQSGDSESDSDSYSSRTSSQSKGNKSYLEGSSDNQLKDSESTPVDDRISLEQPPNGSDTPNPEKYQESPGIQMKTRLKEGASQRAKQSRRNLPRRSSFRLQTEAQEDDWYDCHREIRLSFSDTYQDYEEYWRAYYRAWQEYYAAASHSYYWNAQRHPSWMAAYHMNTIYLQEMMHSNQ
UniProt Q9UNS2: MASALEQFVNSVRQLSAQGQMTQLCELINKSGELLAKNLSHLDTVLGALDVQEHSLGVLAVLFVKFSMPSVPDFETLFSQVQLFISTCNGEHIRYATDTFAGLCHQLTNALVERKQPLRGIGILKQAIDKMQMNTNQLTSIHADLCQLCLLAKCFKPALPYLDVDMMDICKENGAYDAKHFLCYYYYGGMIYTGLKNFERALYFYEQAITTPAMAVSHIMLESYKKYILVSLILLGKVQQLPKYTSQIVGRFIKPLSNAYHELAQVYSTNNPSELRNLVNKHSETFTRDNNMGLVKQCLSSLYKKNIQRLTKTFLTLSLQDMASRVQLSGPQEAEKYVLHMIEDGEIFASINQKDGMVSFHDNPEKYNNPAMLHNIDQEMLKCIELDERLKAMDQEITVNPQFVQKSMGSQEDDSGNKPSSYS

compound: COC(=O)/C=C/c1ccccc1 [methyl cinnamate]; assay: log2 ratio of iodoacetamide-alkyne labeling of the cysteine site, DMSO over compound (competition); higher = stronger covalent engagement of the cysteine by the compound, active = 1 or more; conditions: 500 µM; treatment time 1 h; system: HEK293T cell lysate
Outline: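 Three replicates, each with duplicate channels, were prepared from HEK293T lysate (2 mg/mL) treated with vehicle or electrophile at 500 µM for 1 h at ambient temperature. Iodoacetamide alkyne was then applied for 1 h, and samples were clicked to sCIP-TMT reagents, pooled, trypsin-digested overnight at 37 °C, enriched on streptavidin, acid-eluted and analysed on Orbitrap Eclipse LC-MS/MS with FAIMS, with FragPipe quantification. The log2 competition ratio per cysteine is the mean control-channel divided by the mean compound-channel reporter intensity. Cysteines quantified in only one replicate were left out.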

log2 ratio of iodoacetamide-alkyne labeling, inactive:
MRPS18C C90 (UniProt Q9Y3D5) -0.0815
AKAP8L C128 (UniProt Q9ULX6) 0.0131
ACIN1 C546 (UniProt Q9UKV3) 0.424
PRR12 C173 (UniProt Q9ULL5) 0.286
SAP30BP C127 (UniProt Q9UHR5) 0.667
ZNHIT2 C188 (UniProt Q9UHR6) 0.0727
CHORDC1 C5 (UniProt Q9UHD1) 0.126
NUP50 C416 (UniProt Q9UKX7) -0.119
ACOT9 C155 (UniProt Q9Y305) 0.0895
LUC7L2 C36 (UniProt Q9Y383) 0.149
MAGED2 C516 (UniProt Q9UNF1) 0.158
SNX12 C141 (UniProt Q9UMY4) 0.251
SHOC2 C306 (UniProt Q9UQ13) -0.0467
CPSF3 C655 (UniProt Q9UKF6) 0.25
HECTD1 C1995 (UniProt Q9ULT8) 0.228
TPX2 C594 (UniProt Q9ULW0) 0.519
UniProt Q9Y3I0_C193 0.129
AGTPBP1 C567 (UniProt Q9UPW5) 0.182
GTF3C4 C129 (UniProt Q9UKN8) 0.463
ACIN1 C1083 (UniProt Q9UKV3) 0.223
CPSF3 C498 (UniProt Q9UKF6) 0.206
HERC5 C424 (UniProt Q9UII4) 0.185
RWDD3 C17 (UniProt Q9Y3V2) -0.114
TNRC6B C600 (UniProt Q9UPQ9) 0.193
MBD1 C525 (UniProt Q9UIS9) 0.29
DDX20 C538 (UniProt Q9UHI6) 0.249
GTF3C4 C116 (UniProt Q9UKN8) 0.0819
COPS3 C25 (UniProt Q9UNS2) -0.138
MED23 C1069 (UniProt Q9ULK4) 0.152
PLCL2 C90 (UniProt Q9UPR0) 0.123
EXOC6B C68 (UniProt Q9Y2D4) -0.103
KIDINS220 C412 (UniProt Q9ULH0) 0.0653
LUC7L2 C348 (UniProt Q9Y383) 0.262
MRPS7 C152 (UniProt Q9Y2R9) 0.0201
NUDC C188 (UniProt Q9Y266) -0.15
NUFIP1 C317 (UniProt Q9UHK0) 0.164
SHPK C105 (UniProt Q9UHJ6) -0.0929

2 entries drawn at random from the list so far:
log2 ratio of iodoacetamide-alkyne labeling, inactive:
TPX2 C594 (UniProt Q9ULW0) 0.519
DDX20 C538 (UniProt Q9UHI6) 0.249
